No constants are given. Whether binding was seen depends on the method and setting. In cells and extracts the contact can be indirect. Some entries that bind do so weakly or less than the wild type.
Biological target: T1, Lrfn2/SALM1 (mouse, endogenous) (mouse (endogenous in mouse brain)) (UniProt Q80TG9)
T1 sequence: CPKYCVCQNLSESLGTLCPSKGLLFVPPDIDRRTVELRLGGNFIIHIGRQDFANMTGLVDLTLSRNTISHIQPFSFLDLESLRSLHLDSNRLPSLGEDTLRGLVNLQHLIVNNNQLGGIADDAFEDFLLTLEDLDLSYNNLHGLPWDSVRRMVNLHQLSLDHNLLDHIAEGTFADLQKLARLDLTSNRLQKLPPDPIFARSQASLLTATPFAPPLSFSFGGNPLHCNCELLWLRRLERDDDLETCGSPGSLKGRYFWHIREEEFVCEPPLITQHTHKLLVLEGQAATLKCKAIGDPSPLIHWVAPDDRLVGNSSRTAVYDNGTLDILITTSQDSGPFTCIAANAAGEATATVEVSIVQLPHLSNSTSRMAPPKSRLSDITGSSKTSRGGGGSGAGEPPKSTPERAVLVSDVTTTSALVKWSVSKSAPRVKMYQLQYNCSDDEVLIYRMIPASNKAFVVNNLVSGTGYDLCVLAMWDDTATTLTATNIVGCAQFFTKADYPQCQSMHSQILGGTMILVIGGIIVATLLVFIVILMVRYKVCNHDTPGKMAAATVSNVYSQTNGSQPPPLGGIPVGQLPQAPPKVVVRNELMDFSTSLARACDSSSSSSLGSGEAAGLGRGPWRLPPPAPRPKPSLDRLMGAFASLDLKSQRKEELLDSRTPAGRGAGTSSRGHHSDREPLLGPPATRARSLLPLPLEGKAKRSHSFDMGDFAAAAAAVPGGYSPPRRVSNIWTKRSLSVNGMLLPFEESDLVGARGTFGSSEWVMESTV
Test: co-IP; mouse brain (without cerebellum) synaptosomal fraction (250 ug) in RIPA buffer; anti-Lrfn2 antibody or normal rabbit IgG overnight at 4 C, protein A-agarose, five washes with RIPA buffer, immunoblot

By UniProt entry, the sequences of proteins in these tests, tags left out. Residues count along the entry.
UniProt Q01097, residues 27-1482: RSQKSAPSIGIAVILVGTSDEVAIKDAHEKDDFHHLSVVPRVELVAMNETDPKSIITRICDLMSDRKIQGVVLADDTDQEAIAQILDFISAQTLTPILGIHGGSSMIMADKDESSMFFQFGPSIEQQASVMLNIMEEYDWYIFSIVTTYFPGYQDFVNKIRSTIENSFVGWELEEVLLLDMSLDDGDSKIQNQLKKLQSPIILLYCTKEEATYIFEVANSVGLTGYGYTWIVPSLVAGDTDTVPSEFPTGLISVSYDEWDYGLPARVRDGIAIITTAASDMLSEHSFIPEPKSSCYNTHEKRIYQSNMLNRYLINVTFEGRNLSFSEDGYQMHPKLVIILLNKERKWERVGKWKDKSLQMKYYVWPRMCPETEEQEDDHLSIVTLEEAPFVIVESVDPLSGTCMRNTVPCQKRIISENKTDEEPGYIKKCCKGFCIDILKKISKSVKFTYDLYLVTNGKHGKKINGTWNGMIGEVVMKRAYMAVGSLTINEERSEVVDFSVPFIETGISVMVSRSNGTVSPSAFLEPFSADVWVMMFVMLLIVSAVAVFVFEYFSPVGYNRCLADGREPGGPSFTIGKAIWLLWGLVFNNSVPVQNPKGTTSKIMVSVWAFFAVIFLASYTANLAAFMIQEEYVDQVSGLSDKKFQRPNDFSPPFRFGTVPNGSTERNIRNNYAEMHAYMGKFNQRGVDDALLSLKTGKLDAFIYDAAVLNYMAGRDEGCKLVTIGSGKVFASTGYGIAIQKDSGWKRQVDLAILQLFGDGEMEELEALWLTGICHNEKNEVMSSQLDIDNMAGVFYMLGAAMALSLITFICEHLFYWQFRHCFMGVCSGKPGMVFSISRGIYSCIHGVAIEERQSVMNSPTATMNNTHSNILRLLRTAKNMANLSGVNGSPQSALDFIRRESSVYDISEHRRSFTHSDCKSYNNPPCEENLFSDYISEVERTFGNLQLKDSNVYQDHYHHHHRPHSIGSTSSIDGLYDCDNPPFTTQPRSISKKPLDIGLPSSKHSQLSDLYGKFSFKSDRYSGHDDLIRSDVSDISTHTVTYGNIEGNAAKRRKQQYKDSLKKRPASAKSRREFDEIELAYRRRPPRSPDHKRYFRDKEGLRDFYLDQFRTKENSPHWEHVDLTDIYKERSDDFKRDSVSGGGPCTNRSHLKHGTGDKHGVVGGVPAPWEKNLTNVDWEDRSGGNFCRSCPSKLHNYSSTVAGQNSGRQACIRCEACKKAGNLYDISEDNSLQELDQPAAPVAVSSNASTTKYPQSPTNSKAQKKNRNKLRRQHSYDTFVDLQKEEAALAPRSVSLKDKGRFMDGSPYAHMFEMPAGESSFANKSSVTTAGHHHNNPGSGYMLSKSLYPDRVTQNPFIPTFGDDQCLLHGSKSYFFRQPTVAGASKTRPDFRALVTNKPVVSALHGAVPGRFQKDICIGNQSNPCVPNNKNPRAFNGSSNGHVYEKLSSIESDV

| binding | Substance |
| --- | --- |
| binds | GluN2A subunit of NMDAR (mouse, endogenous) (from UniProt P35436 23-1464) (receptor) |
| binds | GluN2B subunit of NMDAR (mouse, endogenous) (from UniProt Q01097 27-1482) (receptor) |
